Test results from patent US9403747B2, “Methods and compositions for treating leukemia” (Golden Biotechnology Corporation, priority 2013, dated 2016).
At least one structure is not confirmed: it was looked up by name or label, or the drawing left a doubt.

Amino acid sequences for entries named in this document (tags omitted).
UniProt Q02293, whole entry: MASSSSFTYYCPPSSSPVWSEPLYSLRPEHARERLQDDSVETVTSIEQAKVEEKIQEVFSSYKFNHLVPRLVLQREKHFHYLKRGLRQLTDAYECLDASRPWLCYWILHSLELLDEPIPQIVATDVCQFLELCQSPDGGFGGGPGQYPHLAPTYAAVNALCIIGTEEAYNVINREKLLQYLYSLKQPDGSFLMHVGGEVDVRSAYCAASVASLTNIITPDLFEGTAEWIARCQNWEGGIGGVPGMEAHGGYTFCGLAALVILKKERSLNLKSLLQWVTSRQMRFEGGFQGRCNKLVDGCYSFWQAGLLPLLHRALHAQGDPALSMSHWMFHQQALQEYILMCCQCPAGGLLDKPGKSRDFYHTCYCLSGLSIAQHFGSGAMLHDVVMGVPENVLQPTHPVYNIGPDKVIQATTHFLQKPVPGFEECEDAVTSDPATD

How the values were obtained:
[1] = test system: ERK1/2; experiment: Immunoblot for phosphorylated and total ERK1/2 in cancer cell lines; type: cell-based, human; details: serum-starved, 1 h
[2] = test system: Ras; experiment: Immunoblot of unprocessed and processed Ras in cancer cell lines; type: cell-based, human; details: 24 h
Experimental: FIG. 2A-C show illustrative effective results of the exemplary Compound 1 inhibiting Ras processing in cancer cell lines. (2A) A549 and H838 cells were treated with different concentrations of Compound 1 and grown under serum (10% FBS) or serum-free (no FBS) conditions for 24 h. (2B) H838, (2C) HepG2 and K562 cells were treated with different concentrations of Compound 1 and grown under serum-free (no FBS) conditions for 24 h. Whole cell lysates were then immunoblotted with a Ras antibody. A duplicate membrane was probed with a GAPDH antibody. The relative expression level of unprocessed to processed Ras was quantified by densitometry. The experiments were conducted three times. Bars represent the mean±SEM. *P<0.05, ** P<0.01
FIG. 3A-C show illustrative effective results of Compound 1 inhibiting the prenylation activity of farnesyltransferase in vitro and competes with FPP within cells. (3A) Chemical structure of Compound 1 and FPP. (3B) H838 cells stimulated with either Compound 1 or FPP as indicated for 24 h. Whole cell lysates were then immunoblotted with a Ras antibody. A duplicate membrane was probed with a GAPDH antibody. The relative expression level of unprocessed to processed Ras was quantified by densitometry. The experiments were conducted three times. (3C) SDS-PAGE of fluorescently labeled H-Ras-GST after prenylation with NBD-FPP mediated by FTase.
Human hepatoma (HepG2, Hep3B), human lung adenocarcinoma (A549, H838), and human myelogenous leukemia (K562) cell lines were obtained from American Type Culture Collection (Rockville, Md., USA). […]
Sixty micrograms of total protein lysates measured using a Bradford assay (Sigma-Aldrich, St. Louis, Mo., USA) were resolved on 12.5% SDS-polyacrylamide gels. […] Secondary antibodies were conjugated to horseradish peroxidase, which was detected using a 3,3′-diaminobenzidine substrate kit (Vector Laboratories, Burlingame, Calif.). The immunoreactive bands were quantified by densitometry using Image-Pro Plus software (Media Cybernetics, Silver Spring, Md.). […]

[3] = molecular target: T1, FTase (Rattus norvegicus, UniProt Q02293+Q04631); experiment: SDS-PAGE-based prenyltransferase assay; type: biochemical; details: in vitro, NBD-FPP, H-Ras-GST, 3 h at 37° C.
T1 construct: purchased Jena, Germany (so in the source)

[4] = test system: H838 cells; experiment: Autophagic activity: Beclin-1 and LC3B immunoblot; type: cell-based, human; details: serum-free
[5] = test system: THP-1 xenograft; experiment: THP-1 leukemia xenograft model; type: in vivo, CB.17 SCID mice; details: 120 mg/kg PO twice per day, 5 days per week, 4 weeks
Experimental: Six to seven weeks old male CB.17 SCID mice were purchased from BioLasco Taiwan Co., LTD. and quarantined for one week. During experiment period, 5 mice will be housed in one cage. All animals will be hosted in the Da-Hu animal facility in a 12-h light/12-h dark cycle at 19-25° C. Animals have free access to rodent pellet food and water ad libitum. The experimental protocol of animal study was reviewed and approved by the Institutional Animal Care and Use Committee, DCB. Compound 1 was diluted in olive oil to final concentrations of 12 mg/mL.
Tumor cell line: THP-1 cells (leukemia) were cultured in RPMI-1640 medium or DMEM medium which supplemented with 10% heat inactivated fetal bovine serum. The cells were cultured in tissue culture flasks in a humidified incubator at 37° C., in an atmosphere of 5% CO2 and 95% air.
The human cancer cells used for implantation were harvested during log phase growth and resuspended in phosphate buffered saline to a concentration containing 2×10^7 cells/mL of THP-1, in 0.1 mL of a 50% Matrigel solution (BD Biosciences, MA, USA). […] Volume was calculated using the formula: Tumor Volume=(w^2×l)/2 where w=width and l=length in diameter (mm) of the tumor. […]
Tumors were measured twice per week using calipers. […] The body weight change was calculated as the percentage increase in body weight compared to the initial body weight. […]

[6] = test system: PI3K signaling; details: A549 cells; cited from earlier work

With COC1=C(OC)C(O)C(C/C=C(\C)CC/C=C(\C)CCC=C(C)C)C(C)C1=O (stereo not drawn) [Compound 1, 4-hydroxy-2,3-dimethoxy-6-methyl-5-(3,7,11-trimethyldodeca-2,6,10-trienyl)cyclohex-2-enone] the ERK1/2 phosphorylation ([1]; H838 cells, coincident with increased total ERK1/2) was “increase in ERK1/2 phosphorylation”, the ERK1/2 phosphorylation ([1]; HepG2 and A549 cells) was “induced phosphorylation of ERK1/2” and the “total ERK1/2 expression level” value ([1]; HepG2 and A549 cells) was “unaffected”. For the same compound, the “unprocessed Ras” value ([2]; A549 and H838 cells, serum and serum-free conditions) was “accumulation of unprocessed Ras”, the “unprocessed Ras” value ([2]; H838, HepG2 and K562 cells, serum-free) was “dose-dependent accumulation of unprocessed Ras” and the “Ras processing, agent alone” value ([2]; H838 cells) was “significantly enhanced accumulation of unprocessed Ras”. For the same compound, the FTase activity [3] was “dose-dependent inhibition of FTase activity”, the LC3B conversion ([4]; 24 h) was “induced autophagic conversion of LC3B-1 to LC3B-II” and the Beclin-1 expression ([4]; 24 h and 48 h) was “increased”. The tumor volume ([5]; P<0.005 vs vehicle) was “decrease of the tumor volume”, the tumor mass weight ([5]; end point) was “decrease tumor mass weight” and the PI3K signaling [6] was “inhibit PI3K signaling”.
